Measured values as given in the supplement of paper PMC7666118.
The other results are listed elsewhere or left out.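 The calls were made as follows: active = dose-dependent thermal stabilisation significant by F-test of dose-response against flat model at 10% FDR; inactive = not significant.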

Protein sequences, listed by entry. Tags and fused reporters are not part of them. Lines headed by an entry give the natural chain unless they say otherwise; changes in a name come on top.
UniProt Q99719: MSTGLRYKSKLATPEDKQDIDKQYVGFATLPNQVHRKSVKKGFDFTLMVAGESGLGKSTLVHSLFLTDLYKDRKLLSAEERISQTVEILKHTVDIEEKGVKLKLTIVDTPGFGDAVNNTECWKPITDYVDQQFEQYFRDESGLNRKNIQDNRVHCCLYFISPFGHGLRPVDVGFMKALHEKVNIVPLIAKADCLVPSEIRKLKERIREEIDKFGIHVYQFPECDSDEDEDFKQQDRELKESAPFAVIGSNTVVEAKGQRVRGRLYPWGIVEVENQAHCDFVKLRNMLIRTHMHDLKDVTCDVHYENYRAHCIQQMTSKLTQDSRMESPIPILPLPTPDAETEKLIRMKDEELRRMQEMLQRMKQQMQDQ
UniProt Q9UHD8: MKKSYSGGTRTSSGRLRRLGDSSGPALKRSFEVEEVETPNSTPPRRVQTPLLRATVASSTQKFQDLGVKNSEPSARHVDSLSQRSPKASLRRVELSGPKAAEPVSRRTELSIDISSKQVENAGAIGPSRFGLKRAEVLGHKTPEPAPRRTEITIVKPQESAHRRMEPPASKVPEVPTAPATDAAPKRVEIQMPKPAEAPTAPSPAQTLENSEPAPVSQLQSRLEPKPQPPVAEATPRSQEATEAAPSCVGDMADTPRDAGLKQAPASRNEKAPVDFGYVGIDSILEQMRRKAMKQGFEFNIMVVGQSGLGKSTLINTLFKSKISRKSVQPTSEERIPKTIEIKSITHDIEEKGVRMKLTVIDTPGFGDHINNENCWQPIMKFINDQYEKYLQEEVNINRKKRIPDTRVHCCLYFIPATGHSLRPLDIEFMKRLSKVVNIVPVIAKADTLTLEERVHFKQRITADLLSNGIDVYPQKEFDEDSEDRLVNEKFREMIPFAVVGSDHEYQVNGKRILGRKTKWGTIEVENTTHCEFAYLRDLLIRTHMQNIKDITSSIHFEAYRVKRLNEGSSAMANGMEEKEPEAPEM
UniProt Q9Y265, whole entry: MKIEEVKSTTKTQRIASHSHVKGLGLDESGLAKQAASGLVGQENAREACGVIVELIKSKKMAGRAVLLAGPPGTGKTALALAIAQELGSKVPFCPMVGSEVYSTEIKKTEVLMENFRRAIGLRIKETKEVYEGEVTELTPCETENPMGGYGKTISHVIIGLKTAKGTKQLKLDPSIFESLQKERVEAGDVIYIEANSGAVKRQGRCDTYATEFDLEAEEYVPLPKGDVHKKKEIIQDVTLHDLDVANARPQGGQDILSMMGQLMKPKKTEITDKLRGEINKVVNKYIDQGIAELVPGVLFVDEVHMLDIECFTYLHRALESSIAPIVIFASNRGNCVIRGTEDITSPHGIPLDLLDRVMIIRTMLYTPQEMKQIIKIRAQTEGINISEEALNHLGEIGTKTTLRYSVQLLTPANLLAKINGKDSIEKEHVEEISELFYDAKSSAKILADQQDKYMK
UniProt Q9Y3B4: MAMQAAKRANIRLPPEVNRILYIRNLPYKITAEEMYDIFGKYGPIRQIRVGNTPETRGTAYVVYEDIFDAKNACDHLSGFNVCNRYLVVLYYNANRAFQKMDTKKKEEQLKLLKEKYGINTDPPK
UniProt Q9NVA2: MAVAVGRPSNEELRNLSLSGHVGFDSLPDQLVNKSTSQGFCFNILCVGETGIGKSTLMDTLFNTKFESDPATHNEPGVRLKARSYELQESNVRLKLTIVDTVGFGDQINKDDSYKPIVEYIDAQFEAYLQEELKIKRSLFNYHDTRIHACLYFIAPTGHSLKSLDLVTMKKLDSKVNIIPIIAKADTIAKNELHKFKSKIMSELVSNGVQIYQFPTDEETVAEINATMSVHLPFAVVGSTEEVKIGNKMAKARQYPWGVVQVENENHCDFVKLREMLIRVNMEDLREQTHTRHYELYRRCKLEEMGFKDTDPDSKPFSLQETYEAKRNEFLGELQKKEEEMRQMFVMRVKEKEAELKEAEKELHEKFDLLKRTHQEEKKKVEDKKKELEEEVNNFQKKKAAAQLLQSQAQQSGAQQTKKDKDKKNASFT
UniProt P49903: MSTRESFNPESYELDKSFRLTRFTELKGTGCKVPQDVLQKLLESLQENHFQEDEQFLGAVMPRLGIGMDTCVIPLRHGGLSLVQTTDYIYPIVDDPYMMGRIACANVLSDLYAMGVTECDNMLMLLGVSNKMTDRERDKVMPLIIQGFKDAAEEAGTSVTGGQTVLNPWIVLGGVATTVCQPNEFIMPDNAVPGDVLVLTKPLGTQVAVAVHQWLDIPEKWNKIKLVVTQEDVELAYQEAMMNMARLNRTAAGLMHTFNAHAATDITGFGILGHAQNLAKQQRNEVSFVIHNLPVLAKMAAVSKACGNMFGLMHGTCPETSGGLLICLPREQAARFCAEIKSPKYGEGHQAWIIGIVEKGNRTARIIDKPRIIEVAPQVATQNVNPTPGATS
UniProt P21912: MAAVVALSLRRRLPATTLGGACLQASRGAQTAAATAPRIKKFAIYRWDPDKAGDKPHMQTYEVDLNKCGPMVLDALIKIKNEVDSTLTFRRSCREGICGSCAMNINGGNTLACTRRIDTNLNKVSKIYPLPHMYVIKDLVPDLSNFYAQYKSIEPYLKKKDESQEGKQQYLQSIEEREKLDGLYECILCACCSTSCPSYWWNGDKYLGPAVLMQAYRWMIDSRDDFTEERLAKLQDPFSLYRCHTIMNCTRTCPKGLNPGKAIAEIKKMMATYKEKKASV
UniProt O43566: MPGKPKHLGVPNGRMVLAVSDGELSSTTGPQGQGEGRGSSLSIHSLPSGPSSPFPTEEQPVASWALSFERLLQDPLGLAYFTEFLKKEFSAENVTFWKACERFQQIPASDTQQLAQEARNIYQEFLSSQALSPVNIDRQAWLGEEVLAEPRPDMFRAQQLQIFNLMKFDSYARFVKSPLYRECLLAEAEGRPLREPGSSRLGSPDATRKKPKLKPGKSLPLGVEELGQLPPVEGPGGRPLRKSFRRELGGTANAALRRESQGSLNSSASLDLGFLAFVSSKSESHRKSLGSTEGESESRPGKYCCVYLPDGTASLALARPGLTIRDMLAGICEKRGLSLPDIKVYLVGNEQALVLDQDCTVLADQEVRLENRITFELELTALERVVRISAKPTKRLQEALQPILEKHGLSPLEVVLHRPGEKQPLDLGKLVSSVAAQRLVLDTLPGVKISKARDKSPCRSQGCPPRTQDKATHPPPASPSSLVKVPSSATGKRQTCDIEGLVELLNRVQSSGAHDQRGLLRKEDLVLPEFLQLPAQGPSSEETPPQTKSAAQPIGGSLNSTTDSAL
UniProt Q14684: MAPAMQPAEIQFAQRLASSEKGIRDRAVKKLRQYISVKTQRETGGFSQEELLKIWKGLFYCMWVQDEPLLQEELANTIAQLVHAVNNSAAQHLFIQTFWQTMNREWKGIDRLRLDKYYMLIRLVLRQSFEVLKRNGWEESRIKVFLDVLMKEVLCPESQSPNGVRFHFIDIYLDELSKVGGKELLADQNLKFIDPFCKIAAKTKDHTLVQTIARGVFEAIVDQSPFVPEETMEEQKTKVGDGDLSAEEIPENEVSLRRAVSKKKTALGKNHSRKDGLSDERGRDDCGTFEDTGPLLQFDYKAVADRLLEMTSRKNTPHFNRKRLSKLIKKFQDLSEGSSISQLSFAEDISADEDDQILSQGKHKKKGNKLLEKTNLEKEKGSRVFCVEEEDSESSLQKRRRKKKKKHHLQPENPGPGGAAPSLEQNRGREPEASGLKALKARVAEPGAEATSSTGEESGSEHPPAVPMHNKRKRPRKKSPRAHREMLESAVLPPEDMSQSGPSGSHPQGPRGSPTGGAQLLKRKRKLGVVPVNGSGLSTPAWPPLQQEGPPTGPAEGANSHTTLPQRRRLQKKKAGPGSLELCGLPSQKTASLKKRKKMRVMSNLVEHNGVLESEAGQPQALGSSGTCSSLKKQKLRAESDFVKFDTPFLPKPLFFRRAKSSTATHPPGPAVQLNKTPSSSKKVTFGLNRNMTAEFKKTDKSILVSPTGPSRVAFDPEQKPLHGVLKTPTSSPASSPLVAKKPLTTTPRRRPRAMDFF
UniProt Q9Y508: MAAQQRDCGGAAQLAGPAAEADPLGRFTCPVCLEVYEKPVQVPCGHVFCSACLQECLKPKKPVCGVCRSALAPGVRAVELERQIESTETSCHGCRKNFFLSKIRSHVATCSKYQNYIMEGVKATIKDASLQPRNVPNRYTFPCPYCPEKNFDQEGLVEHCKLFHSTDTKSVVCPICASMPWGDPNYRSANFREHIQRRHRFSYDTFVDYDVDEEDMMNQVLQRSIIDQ
UniProt Q9UGK8: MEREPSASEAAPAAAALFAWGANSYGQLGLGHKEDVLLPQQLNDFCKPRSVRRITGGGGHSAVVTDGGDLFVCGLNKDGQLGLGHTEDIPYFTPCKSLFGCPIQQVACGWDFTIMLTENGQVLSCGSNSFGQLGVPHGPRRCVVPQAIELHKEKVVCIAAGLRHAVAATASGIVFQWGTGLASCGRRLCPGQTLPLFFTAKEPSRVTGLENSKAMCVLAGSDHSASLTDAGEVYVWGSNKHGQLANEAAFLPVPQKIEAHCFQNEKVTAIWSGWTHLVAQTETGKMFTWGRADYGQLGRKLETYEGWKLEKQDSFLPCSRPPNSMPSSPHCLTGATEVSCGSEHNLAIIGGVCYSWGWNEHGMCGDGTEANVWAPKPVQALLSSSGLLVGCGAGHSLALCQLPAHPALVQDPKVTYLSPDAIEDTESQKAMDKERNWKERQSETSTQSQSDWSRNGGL
UniProt Q96D71: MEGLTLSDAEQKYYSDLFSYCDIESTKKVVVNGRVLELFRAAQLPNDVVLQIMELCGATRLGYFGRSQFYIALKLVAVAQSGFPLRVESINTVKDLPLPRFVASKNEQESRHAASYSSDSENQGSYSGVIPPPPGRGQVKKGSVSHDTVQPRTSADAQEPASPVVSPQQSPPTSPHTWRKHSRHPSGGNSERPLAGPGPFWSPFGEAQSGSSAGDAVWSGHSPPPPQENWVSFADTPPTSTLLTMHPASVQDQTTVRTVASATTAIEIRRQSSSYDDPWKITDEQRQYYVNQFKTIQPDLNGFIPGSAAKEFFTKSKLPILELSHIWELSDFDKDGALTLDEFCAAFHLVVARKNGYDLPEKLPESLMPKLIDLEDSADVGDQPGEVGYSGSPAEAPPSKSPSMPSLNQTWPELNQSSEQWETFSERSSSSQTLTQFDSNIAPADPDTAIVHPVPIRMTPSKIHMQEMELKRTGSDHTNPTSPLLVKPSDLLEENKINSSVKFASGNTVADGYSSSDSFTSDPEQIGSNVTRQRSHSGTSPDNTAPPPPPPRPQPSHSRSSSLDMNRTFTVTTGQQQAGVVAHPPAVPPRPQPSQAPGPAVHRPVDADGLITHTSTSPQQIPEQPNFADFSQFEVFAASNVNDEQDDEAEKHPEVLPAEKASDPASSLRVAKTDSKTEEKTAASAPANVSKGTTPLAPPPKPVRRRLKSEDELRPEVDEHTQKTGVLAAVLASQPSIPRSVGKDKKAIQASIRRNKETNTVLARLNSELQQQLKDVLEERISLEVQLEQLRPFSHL
UniProt Q9H299: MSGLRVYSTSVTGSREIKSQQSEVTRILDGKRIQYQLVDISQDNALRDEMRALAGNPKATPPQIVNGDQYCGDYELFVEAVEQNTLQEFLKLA
UniProt Q5VTR2, whole entry: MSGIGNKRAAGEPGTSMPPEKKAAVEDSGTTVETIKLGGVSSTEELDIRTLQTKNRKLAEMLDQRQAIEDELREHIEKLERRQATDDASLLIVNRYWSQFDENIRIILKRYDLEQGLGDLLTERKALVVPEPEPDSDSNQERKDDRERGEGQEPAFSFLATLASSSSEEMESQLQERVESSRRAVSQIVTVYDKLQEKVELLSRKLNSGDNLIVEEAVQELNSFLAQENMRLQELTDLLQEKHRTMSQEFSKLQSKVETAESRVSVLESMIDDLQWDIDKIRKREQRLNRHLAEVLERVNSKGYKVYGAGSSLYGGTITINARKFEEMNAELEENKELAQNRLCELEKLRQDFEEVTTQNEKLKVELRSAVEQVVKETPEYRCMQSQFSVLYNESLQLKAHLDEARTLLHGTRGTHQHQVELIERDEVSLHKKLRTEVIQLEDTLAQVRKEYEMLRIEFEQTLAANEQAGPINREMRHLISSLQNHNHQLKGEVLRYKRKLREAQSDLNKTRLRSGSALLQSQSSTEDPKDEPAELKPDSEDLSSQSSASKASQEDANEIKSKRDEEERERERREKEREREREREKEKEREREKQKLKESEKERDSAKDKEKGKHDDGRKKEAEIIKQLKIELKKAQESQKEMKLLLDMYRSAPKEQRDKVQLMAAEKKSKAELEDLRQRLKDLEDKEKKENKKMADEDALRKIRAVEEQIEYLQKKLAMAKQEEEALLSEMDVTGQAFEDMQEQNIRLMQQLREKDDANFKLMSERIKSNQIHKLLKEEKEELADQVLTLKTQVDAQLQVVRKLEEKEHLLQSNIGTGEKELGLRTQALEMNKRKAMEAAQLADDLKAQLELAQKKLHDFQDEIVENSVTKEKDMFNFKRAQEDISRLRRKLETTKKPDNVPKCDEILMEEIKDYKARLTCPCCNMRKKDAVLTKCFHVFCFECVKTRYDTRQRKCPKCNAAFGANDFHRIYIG

Compound: Nc1nc2c(ncn2[C@@H]2O[C@H](COP(=O)(O)OP(=O)(O)OP(=O)(O)O)[C@@H](O)[C@H]2O)c(=O)[nH]1
Assay: dose-dependent thermal stabilisation call (2D-TPP, DLPTP, 10% FDR) (binary (1 = stabilised)); higher = stabilised by the compound
Settings: system: Jurkat gel-filtered lysate; concentration range 1-500 µM

dose-dependent thermal stabilisation call, active:
RPRD1A (UniProt Q96P16) 1, RRAS (UniProt P10301) 1, RPL10 (UniProt P27635) 1, SEPTIN5 (UniProt Q99719) 1

dose-dependent thermal stabilisation call, inactive:
ROCK2 (UniProt O75116) 0, RHOG (UniProt P84095) 0, RNF14 (UniProt Q9UBS8) 0, SEPTIN9 (UniProt Q9UHD8) 0, RUVBL1 (UniProt Q9Y265) 0, SEMA4D (UniProt Q92854) 0, SENP6 (UniProt Q9GZR1) 0, RPL31 (UniProt P62899) 0, RRAGC (UniProt Q9HB90) 0, SF3B6 (UniProt Q9Y3B4) 0, SEPTIN11 (UniProt Q9NVA2) 0, SEPHS1 (UniProt P49903) 0, SCYL2 (UniProt Q6P3W7) 0, SDHB (UniProt P21912) 0, RGS14 (UniProt O43566) 0, SCRN3 (UniProt Q0VDG4) 0, RPL26L1 (UniProt Q9UNX3) 0, RRP1B (UniProt Q14684) 0, RRM2 (UniProt P31350) 0, RNF114 (UniProt Q9Y508) 0, SH3GL1 (UniProt Q99961) 0, RPS28 (UniProt P62857) 0, SERGEF (UniProt Q9UGK8) 0, S100A4 (UniProt P26447) 0, SCLY (UniProt Q96I15) 0, REPS1 (UniProt Q96D71) 0, RP9 (UniProt Q8TA86) 0, SGO2 (UniProt Q562F6) 0, RNF181 (UniProt Q9P0P0) 0, SGTA (UniProt O43765) 0, SH3BGRL3 (UniProt Q9H299) 0, RNF20 (UniProt Q5VTR2) 0
